# The campaign covered roughly 320,000 compounds. About 2,100 (0.66%) were called active. The shares of active, inactive and inconclusive entries below differ from those in the screen. Calls come from the whole dose curve; as a rule, active = well fitted inhibition curve with a large enough effect in the signal ratio, with a control signal flat (not every such curve was filed as active); inconclusive = small, poorly fitted or top-dose-only effect, or effect the other way, or a change in a side signal; inactive = flat fitted curve, though single readings scatter; the % refers to the signal ratio. Potencies of inconclusive entries are doubtful fits and often do not repeat.
# Experiment: qHTS Assay for Lipid Storage Modulators in Drosophila S3 Cells
# Details: BODIPY lipid droplet fluorescence, 18-24 h, cells fed with added oleic acid; lipid storage change, negative = inhibition: at 46.1 µM (top of the series) unless noted
# Procedure, shortened: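 Drosophila S3 cells loaded with oleic acid (400 uM, as added) and compounds at several concentrations; lipid droplets imaged by 488-nm laser-scanning cytometry, 500–530 nm intensity and object ratio to cell channel. Percent activity normalized to 20 uM Triacsin C.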
# % is set by controls: 0 for no effect and ±100 for the full control effect; potency is the fitted concentration of half-maximal effect.
Compound,Potency,"lipid storage change, negative = inhibition"
Cc1c(C(=O)NC(C)C2CC3CCC2C3)cccc1[N+](=O)[O-] (configuration not stated),"inconclusive: 29.1 µM [falling, single point]",–
O=C(Nc1ccc(Cl)cc1F)C1CC1,–,inconclusive: -38.1%
CN(C)CCNC(=O)Cn1ccc2cc(S(=O)(=O)N3CCCCC3)ccc21,–,inconclusive: 61.3%
CN(C)CCCN1C(=O)c2oc3ccc(Cl)cc3c(=O)c2C1c1cccnc1 (configuration not stated),"inconclusive: 10.3 µM [activator, partial curve]",–
Cc1ccc2nc(N(CCN(C)C)C(=O)c3ccc4c(c3)OCCO4)sc2c1,–,inconclusive: 2.6%
Cc1nn(C)cc1NC(=O)Cn1nc(C(F)(F)F)cc1C1CC1,–,inconclusive: 4.54%
CCOC(=O)CSc1nc(C)c(CC)c(C)c1C(N)=O,"inconclusive: 0.058 µM [falling, full curve, poor fit]",–
CCCOc1ccc(/C=C/C(=O)NCc2ccccc2)cc1,–,inconclusive: 18.8%
Cc1cc(C)c2c(N)c(C(=O)Nc3nccs3)sc2n1,–,inconclusive: 25.8%
CN(C)S(=O)(=O)c1cc(NC2CC(=O)N(c3ccc(F)cc3)C2=O)ccc1Cl (configuration not stated),–,inconclusive: 7.25%
Cc1csc(NC(=O)c2cn3ccccc3n2)n1,"inconclusive: 13 µM [rising, single point]",–
Cc1cc(OCC(=O)NC2CC2)c2c(C)cc(=O)oc2c1,–,inconclusive: 11%
Cc1ccccc1NC(=O)Cc1nc(COC(=O)Cc2c(F)cccc2Cl)cs1,–,inconclusive: -74.6%
O=C(Nc1ccc(C(=O)O)c(O)c1)c1ccccc1,"inconclusive: 5.8 µM [falling, single point]",–
Cc1ccc(-c2nc(SC(C)C(=O)N3CCCC3)n[nH]2)cc1 (configuration not stated),–,inconclusive
CSc1nc(-c2ccccc2)cn1-c1ccc(NC(C)=O)cc1,"inconclusive: 0.291 µM [activator, full curve, poor fit]",–
CCn1cc(/C=C(\NC(=O)c2ccccc2)C(=O)NCCCN2CCOCC2)c2ccccc21,–,inconclusive: -17.8%
CN(C)c1ccc(/C=[N+](\[O-])C2SC(=S)N(C)C2(C)C)cc1 (configuration not stated),"inconclusive: 0.0052 µM [falling, full curve]",–
COc1ccc(-c2nnc(SCC(=O)NCCC(C)C)nc2-c2ccc(OC)c(OC)c2)cc1OC,"inconclusive: 0.517 µM [activator, full curve]",–
CC(C)C(NC(=O)c1ccco1)C(=O)NC1CCCCCC1 (configuration not stated),–,inconclusive: 10.3%
COc1ccc(CNC(=S)Nc2cc(C)cc(C)c2)cc1,–,inconclusive: 41.3%
CC(=O)C1=C(O)CCC1=NCCc1ccccc1,"inconclusive: 6.51 µM [falling, single point]",–
CCc1cccc(C)c1NC(=O)Cn1nc(C)n2cccc2c1=O,–,inconclusive: 8.57%
COc1cc(C(=O)Nc2nc(-c3ccc(Cl)cc3)c(C)s2)ccc1OCC(=O)Nc1ccc(F)cc1,–,inconclusive: -5.31%
CC(C)COc1nc2ccccc2nc1C(C#N)C(=O)NC1CCCCC1 (configuration not stated),"inconclusive: 0.92 µM [rising, full curve]",–
CC(OC(=O)CNC(=O)c1ccc2ccccc2c1)C(=O)N(C)C1CCCCC1 (configuration not stated),–,inconclusive

Compound,Potency,"lipid storage change, negative = inhibition"
COCC(C)NC(=O)CCS(=O)(=O)c1nc(-c2ccc(OC)cc2)cc(C(F)(F)F)n1 (configuration not stated),"inconclusive: 0.731 µM [falling, partial curve]",–
O=C(CSC1=NS(=O)(=O)c2cc(Cl)ccc2N1)NCc1ccccc1,–,inconclusive: 12.8%
COCCn1c(SCC(=O)Nc2cc(C)on2)nnc1-c1ccco1,–,inconclusive: -7.07%
CCn1c(=O)n(CC)c2cc(N3CCCC3)c(NC(=O)c3ccccc3OC)cc21,"inconclusive: 0.0046 µM [falling, full curve, poor fit]",–
N#Cc1c(SCC(=O)Nc2ccc(Cl)cc2Cl)sc2c(O)cc(=O)[nH]c12,"inconclusive: 20.6 µM [activator, partial curve]",–
CCCS(=O)(=O)c1c(S(=O)(=O)CCC)c2c(C)cccn2c1C(=O)N/N=C/c1cc(O)cc(O)c1,–,inconclusive: -25.2%
CC(=O)N(C)c1ccc(NC(=S)NCC(C)C)cc1,–,inconclusive: -2%
O=C(NCC1CCCO1)c1cc2ccccc2oc1=O (configuration not stated),–,inconclusive: 27.8%
COc1cc(C#Cc2ccc3cc(CCCO)oc(=O)c3c2)cc(OC)c1,–,inconclusive: 9.28%
CCOC(=O)NC(=S)Nc1ccc(OC)cc1,–,inconclusive: -22.4%
CN(C)c1ccc(/C=N\S(=O)(=O)c2ccccc2)cc1,–,inconclusive: -17%
O=S(=O)(c1cccc(NC(=S)N2CCN(c3ccccc3)CC2)c1)C(F)F,–,inconclusive: 1.12%
COc1ccc(/C=C/C(=O)NCc2cn(C)nc2C)cc1COc1ccc(Br)cc1,"inconclusive: 23.1 µM [falling, single point]",–
Cc1nnc2ccc(-c3ccc(NS(=O)(=O)c4ccc(Cl)s4)cc3)nn12,"inconclusive: 0.116 µM [falling, full curve, poor fit]",–
CC(=O)Nc1ccc(C(=O)OCCCOC(=O)c2ccc(NC(C)=O)cc2)cc1,–,inconclusive: -35.2%
COc1ccccc1NC(=O)C(C)OC(=O)C1COc2ccccc2O1 (configuration not stated),–,inconclusive: 4.94%
CC/C(=N\O)c1c(O)c2c(n(-c3ccccc3)c1=O)CCCC2,–,inconclusive: -15.3%
COc1cccc(OC)c1C(=O)Nc1ccccc1N1CCCC1,"inconclusive: 16.4 µM [activator, single point]",–
C#CC(C)OC(=O)C(C)NC(=O)c1ccccc1 (configuration not stated),–,inconclusive: -3.86%
Cc1cc(C)cc(NC(=O)Cn2cc3c(n2)CCCCC3)c1,–,inconclusive: 37.2%
Cc1ccc(NC2=CC(=O)CC(C)(C)C2)cc1C,–,inconclusive: 62.2%
CCOC(=O)c1nnn(-c2nc(OC)nc(N(C)C)n2)c1-c1ccccc1,–,inconclusive: -7.38%
O=C(CSc1nc(=O)n2ccccc2n1)Nc1ccc2c(c1)OCCO2,"inconclusive: 0.103 µM [falling, full curve, poor fit]",–
CCN1CCN(S(=O)(=O)Cc2ccccc2)CC1,"inconclusive: 29.1 µM [cytotoxic, single point]",–
Cc1ccccc1C(=O)Nc1ccc(S(=O)(=O)N2CC(C)OC(C)C2)cc1 (configuration not stated),"inconclusive: 29.1 µM [falling, single point]",–
CCOc1ccc(NC(=O)CCN2CCN(C)CC2)cc1,–,inconclusive: 6.7%

Compound,Potency,"lipid storage change, negative = inhibition"
Cc1ccc(CN2CCNC(=O)C2CC(=O)N(C)Cc2cnccn2)cc1 (configuration not stated),–,inconclusive: 60.7%
c1coc(-c2ncc[nH]2)c1,"inconclusive: 3.66 µM [activator, single point]",–
CC(=O)c1ccccc1OCC(=O)Nc1cccc(S(=O)(=O)N2CCCC2)c1,–,inconclusive: 27.8%
O=C(c1cccc(C(F)(F)F)c1)N1CCOC12CCN(c1ncc(C(F)(F)F)cc1Cl)CC2,–,inconclusive: 19.1%
CC1CCN(Cc2ccc(NC(=O)C3CCN(c4nnc(-n5cccc5)s4)CC3)cc2)CC1,–,inconclusive: 28.5%
CN(CC(=O)Nc1ccccc1Cl)C(=O)c1ccccc1Sc1ccccc1C#N,–,inconclusive
COc1cccc(CCc2nnc(CCC(=O)NC(C)Cc3cccs3)o2)c1 (configuration not stated),"inconclusive: 8.2 µM [falling, partial curve, poor fit]",–
O=C(NCC1CCCO1)c1ccc[nH]1 (configuration not stated),"inconclusive: 1.16 µM [falling, full curve, poor fit]",–
CCSc1nsc(NC(=O)Nc2ccccc2OC)n1,–,inconclusive: -23.3%
Cc1nc(N2CCN(C(=O)c3ccc(Cl)cc3)CC2)c(C#N)c2c1COC(C)(C)C2,"inconclusive: 29.1 µM [activator, single point]",–
COn1c(-c2ccccc2)nc2c1CCc1nonc1-2,–,inconclusive: 77.2%
O=C1OCCC1Sc1nnc(-c2cccs2)n1Cc1ccccc1 (configuration not stated),–,inconclusive: -37.8%
O=C(NCc1ccccn1)NC12CC3CC(CC(C3)C1)C2,"inconclusive: 0.326 µM [falling, full curve]",–
Cc1oc2nc(SCC(=O)Nc3ccc(S(N)(=O)=O)cc3)nc(NC(=O)c3ccccc3)c2c1C,–,inconclusive: -42.9%
Cc1cc(S(=O)(=O)NCc2ccccc2)ccc1OCC(=O)NCc1ccccn1,active: 5.17 µM,–
Cc1ccc(N2CC(C(=O)Nc3ccc(N4CCOCC4)cc3)CC2=O)cc1C (configuration not stated),"inconclusive: 0.13 µM [activator, single point]",–
CCN(Cc1ccccc1)C(=O)CC(=O)N(CC)Cc1ccccc1,"inconclusive: 29.1 µM [activator, single point]",–
COc1ccc(C(C(=O)NCC2CCCO2)N(Cc2ccccc2)C(=O)c2snc(C(N)=O)c2N)cc1OC (configuration not stated),–,inconclusive: -124%
Cc1cccc(N2CCN(c3nc(C)cc(C)c3C#N)CC2C)c1 (configuration not stated),–,inconclusive: -53.1%
CCC(CC)C(=O)Nc1cccc(C(=O)N2CCCCCC2)c1,–,inconclusive: -42.1%
CCOc1ccc(C(=O)NCC(=O)N2CCN(c3ccccc3O)CC2)cc1,–,inconclusive: 22.4%
COc1ccc(CNC(=O)COC(=O)c2n[nH]c3ccccc23)cc1OC,–,inconclusive: -20.8%
COCc1nnc(NC(=O)C2CC(=O)N(C3CCCCC3)C2)s1 (configuration not stated),"inconclusive: 29.1 µM [activator, single point]",–
CC(=O)Nc1ccc(OCC(O)Cn2c(C)nc3ccccc32)cc1 (configuration not stated),"inconclusive: 29.1 µM [cytotoxic, single point]",–
CCCc1cc(C(=O)Nc2cc(C)on2)no1,"inconclusive: 0.116 µM [falling, full curve, poor fit]",–

# 3 records drawn at random from the list so far, as already listed:
Compound,Potency,"lipid storage change, negative = inhibition"
O=C(c1cccc(C(F)(F)F)c1)N1CCOC12CCN(c1ncc(C(F)(F)F)cc1Cl)CC2,–,inconclusive: 19.1%
COCc1nnc(NC(=O)C2CC(=O)N(C3CCCCC3)C2)s1 (configuration not stated),"inconclusive: 29.1 µM [activator, single point]",–
Cc1cc(S(=O)(=O)NCc2ccccc2)ccc1OCC(=O)NCc1ccccn1,active: 5.17 µM,–

# Complete entries, quoted from the list.
# O=S(=O)(c1cccc(NC(=S)N2CCN(c3ccccc3)CC2)c1)C(F)F reads lipid storage change, negative = inhibition: inconclusive: 1.12%
# CCn1cc(/C=C(\NC(=O)c2ccccc2)C(=O)NCCCN2CCOCC2)c2ccccc21 reads lipid storage change, negative = inhibition: inconclusive: -17.8%
# C#CC(C)OC(=O)C(C)NC(=O)c1ccccc1 (configuration not stated) reads lipid storage change, negative = inhibition: inconclusive: -3.86%

# Source: PubChem BioAssay AID2685 (National Center for Advancing Translational Sciences (NCATS), 2010)
